Source: article PMC7272611
Where two headings read alike, the source gives them in different places. Results are given in words; binding and its absence hold for the method and conditions named. In cells and extracts the contact can be indirect. Binding can be weak; no strength is given. For some of these results: Tags and fused reporters may be left off the sequences shown. Blank lines part the entries; values can stand above or below the molecule they belong to.

Amino acid sequences for entries named in this document (tags omitted). A change or cut given only in a name is not applied to a line headed by its entry.
UniProt Q8SWX0: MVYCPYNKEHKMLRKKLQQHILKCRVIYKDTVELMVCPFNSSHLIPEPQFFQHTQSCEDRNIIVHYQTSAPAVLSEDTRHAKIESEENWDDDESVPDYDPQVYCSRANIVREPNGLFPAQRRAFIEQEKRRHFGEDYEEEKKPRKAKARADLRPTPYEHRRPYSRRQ
UniProt O97159: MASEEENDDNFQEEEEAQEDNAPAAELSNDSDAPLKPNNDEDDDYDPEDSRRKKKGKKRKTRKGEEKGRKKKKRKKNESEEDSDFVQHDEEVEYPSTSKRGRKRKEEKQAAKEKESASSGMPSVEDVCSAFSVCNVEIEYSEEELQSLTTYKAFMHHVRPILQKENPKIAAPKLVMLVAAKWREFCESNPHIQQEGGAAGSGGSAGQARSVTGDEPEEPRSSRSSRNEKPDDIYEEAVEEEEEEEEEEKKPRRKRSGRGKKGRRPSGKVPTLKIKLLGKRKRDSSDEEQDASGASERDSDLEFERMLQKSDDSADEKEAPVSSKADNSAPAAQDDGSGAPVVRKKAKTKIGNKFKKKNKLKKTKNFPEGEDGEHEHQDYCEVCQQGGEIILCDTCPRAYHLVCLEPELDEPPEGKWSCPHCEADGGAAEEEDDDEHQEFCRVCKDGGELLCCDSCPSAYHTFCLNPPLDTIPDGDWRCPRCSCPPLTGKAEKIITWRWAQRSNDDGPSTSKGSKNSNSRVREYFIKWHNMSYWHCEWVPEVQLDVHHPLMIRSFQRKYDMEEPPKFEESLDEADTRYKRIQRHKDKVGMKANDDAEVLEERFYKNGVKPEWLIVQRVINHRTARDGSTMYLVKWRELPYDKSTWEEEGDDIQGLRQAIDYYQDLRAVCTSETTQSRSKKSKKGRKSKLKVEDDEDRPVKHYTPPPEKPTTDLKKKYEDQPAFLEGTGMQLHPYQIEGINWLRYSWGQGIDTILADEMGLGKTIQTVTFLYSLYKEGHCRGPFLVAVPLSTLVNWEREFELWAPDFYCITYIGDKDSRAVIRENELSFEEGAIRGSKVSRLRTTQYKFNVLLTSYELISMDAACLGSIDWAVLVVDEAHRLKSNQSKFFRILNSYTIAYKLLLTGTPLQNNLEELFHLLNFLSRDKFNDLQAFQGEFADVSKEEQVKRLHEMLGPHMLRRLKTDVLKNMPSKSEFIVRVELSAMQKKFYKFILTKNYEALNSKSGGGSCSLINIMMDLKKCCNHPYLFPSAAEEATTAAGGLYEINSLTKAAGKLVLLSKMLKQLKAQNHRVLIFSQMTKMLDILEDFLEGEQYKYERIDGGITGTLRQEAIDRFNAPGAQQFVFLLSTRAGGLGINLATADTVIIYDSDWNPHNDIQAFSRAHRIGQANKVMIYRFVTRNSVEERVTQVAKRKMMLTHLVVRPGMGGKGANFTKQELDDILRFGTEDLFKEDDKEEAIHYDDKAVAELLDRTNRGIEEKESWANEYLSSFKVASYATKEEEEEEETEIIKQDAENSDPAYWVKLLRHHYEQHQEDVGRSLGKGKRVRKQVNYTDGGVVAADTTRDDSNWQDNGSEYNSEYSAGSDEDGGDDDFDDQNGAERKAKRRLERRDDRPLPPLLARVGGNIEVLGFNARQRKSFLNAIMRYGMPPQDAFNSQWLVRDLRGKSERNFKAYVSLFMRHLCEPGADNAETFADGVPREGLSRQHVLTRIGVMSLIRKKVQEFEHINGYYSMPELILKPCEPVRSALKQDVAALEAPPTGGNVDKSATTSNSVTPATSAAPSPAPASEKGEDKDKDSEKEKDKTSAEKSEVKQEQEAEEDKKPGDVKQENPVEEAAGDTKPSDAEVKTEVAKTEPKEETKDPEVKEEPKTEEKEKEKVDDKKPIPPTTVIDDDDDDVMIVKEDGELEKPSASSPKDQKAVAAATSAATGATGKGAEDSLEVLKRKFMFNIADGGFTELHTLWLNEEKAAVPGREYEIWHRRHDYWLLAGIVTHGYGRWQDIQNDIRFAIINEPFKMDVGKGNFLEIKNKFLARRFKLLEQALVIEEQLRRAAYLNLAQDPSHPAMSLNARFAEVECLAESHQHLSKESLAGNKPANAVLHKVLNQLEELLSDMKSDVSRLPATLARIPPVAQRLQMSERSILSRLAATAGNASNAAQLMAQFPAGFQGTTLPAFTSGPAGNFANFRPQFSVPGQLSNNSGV
UniProt Q24572: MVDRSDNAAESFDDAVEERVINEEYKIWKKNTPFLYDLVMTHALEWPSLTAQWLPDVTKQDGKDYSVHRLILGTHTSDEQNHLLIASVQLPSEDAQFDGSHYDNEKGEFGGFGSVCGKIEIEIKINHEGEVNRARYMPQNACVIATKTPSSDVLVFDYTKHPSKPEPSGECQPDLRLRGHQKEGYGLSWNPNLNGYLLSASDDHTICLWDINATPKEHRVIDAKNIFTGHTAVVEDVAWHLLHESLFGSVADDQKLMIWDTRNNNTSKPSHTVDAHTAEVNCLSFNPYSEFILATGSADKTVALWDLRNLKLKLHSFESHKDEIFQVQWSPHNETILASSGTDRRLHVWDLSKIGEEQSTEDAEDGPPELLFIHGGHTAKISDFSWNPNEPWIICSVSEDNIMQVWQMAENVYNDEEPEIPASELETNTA
UniProt Q94517: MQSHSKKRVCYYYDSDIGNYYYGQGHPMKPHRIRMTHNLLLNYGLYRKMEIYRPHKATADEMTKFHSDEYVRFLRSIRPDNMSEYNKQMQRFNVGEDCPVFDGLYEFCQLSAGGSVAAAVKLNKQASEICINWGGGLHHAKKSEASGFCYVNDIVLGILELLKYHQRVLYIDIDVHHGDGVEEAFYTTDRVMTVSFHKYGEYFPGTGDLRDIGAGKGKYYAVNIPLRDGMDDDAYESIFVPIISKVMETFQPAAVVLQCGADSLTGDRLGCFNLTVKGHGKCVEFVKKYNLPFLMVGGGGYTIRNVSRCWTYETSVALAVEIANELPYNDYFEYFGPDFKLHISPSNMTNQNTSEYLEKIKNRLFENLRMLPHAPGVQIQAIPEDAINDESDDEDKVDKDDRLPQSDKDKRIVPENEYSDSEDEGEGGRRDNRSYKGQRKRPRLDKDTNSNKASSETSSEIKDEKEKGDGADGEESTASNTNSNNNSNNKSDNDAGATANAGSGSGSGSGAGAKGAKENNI

Legend:
Gtsf1-GFP (Drosophila) [1] = molecular target: Gtsf1-GFP (Drosophila) (UniProt Q8SWX0); experiment: co-IP; GFP-Trap on nuclear extract of OSCs transiently overexpressing a C-terminally GFP-tagged bait (Gtsf1-GFP or Su(var)2-10-GFP); control: OSCs transfected with a GFP-expressing vector; western blot
[2] = molecular target: T1, Piwi (Drosophila (endogenous in OSC)) (UniProt Q9VKM1); experiment: co-IP; IP of endogenous Piwi (anti-Piwi mouse monoclonal) or endogenous MEP-1 (anti-MEP-1 rabbit polyclonal) from OSC nuclear extract (Gtsf1-FH-containing; for Fig. 6a expressing FLAG-FFL-Su(var)2-10), Nuclear Complex Co-IP Kit under stringent conditions, overnight at 4 °C, Dynabeads protein G, control IgG, western blot
T1 sequence: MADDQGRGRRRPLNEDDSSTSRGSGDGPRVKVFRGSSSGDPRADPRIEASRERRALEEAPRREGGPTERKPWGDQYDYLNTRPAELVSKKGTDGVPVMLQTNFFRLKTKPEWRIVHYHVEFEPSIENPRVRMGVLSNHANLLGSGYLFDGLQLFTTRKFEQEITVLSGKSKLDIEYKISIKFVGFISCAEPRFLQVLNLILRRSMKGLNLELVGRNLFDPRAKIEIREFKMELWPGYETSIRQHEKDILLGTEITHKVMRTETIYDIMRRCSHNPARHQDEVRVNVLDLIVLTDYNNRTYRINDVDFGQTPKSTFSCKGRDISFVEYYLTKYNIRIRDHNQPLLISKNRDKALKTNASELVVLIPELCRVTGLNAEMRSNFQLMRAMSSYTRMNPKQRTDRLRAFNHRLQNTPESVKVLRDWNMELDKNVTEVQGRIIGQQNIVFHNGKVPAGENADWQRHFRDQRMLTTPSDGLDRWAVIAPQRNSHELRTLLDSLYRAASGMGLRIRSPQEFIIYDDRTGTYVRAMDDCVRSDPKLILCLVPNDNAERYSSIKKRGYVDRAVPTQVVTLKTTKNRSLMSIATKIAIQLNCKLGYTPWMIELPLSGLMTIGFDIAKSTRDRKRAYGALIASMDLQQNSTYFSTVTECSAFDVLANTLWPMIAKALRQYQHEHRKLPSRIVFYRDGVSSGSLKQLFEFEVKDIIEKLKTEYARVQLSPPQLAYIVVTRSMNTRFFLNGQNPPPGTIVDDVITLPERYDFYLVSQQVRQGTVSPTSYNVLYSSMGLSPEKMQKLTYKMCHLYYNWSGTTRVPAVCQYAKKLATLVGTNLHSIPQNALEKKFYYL

[3] = molecular target: Gtsf1 fused to the FLAG-tagged Firefly luciferase (FFL) (Drosophila (cDNA from OSC cells)); experiment: co-IP; LUMIER, semi-quantitative luminescence-based dual-luciferase co-IP: FLAG-Firefly-luciferase bait and Renilla-luciferase preys transiently co-expressed in S2R+ cells, anti-FLAG IP, co-IP efficiency normalized to the RL-mCherry co-IP
[4] = molecular target: Su(var)2-10-GFP (Drosophila); experiment: co-IP; GFP-Trap on nuclear extract of OSCs transiently overexpressing a C-terminally GFP-tagged bait (Gtsf1-GFP or Su(var)2-10-GFP); control: OSCs transfected with a GFP-expressing vector; western blot
Gtsf1-GFP (Drosophila) [5] = molecular target: Gtsf1-GFP (Drosophila) (UniProt Q8SWX0); experiment: as above; remark: listed apart in the source
[6] = molecular target: MEP-1 (Drosophila (endogenous in OSC)); experiment: co-IP; IP of endogenous Piwi (anti-Piwi mouse monoclonal) or endogenous MEP-1 (anti-MEP-1 rabbit polyclonal) from OSC nuclear extract (Gtsf1-FH-containing; for Fig. 6a expressing FLAG-FFL-Su(var)2-10), Nuclear Complex Co-IP Kit under stringent conditions, overnight at 4 °C, Dynabeads protein G, control IgG, western blot

- binding (Gtsf1-GFP (Drosophila) [1]): binds
Molecule: Mi-2 (from UniProt O97159 1-1982)

- binding [2]: binds
Molecule: MEP-1 (Drosophila (endogenous in OSC))

- binding [3]: binds
B1: Piwi fused to Renilla luciferase (RL) (protein, UniProt Q9VKM1 1-843)
chain: MADDQGRGRRRPLNEDDSSTSRGSGDGPRVKVFRGSSSGDPRADPRIEASRERRALEEAPRREGGPTERKPWGDQYDYLNTRPAELVSKKGTDGVPVMLQTNFFRLKTKPEWRIVHYHVEFEPSIENPRVRMGVLSNHANLLGSGYLFDGLQLFTTRKFEQEITVLSGKSKLDIEYKISIKFVGFISCAEPRFLQVLNLILRRSMKGLNLELVGRNLFDPRAKIEIREFKMELWPGYETSIRQHEKDILLGTEITHKVMRTETIYDIMRRCSHNPARHQDEVRVNVLDLIVLTDYNNRTYRINDVDFGQTPKSTFSCKGRDISFVEYYLTKYNIRIRDHNQPLLISKNRDKALKTNASELVVLIPELCRVTGLNAEMRSNFQLMRAMSSYTRMNPKQRTDRLRAFNHRLQNTPESVKVLRDWNMELDKNVTEVQGRIIGQQNIVFHNGKVPAGENADWQRHFRDQRMLTTPSDGLDRWAVIAPQRNSHELRTLLDSLYRAASGMGLRIRSPQEFIIYDDRTGTYVRAMDDCVRSDPKLILCLVPNDNAERYSSIKKRGYVDRAVPTQVVTLKTTKNRSLMSIATKIAIQLNCKLGYTPWMIELPLSGLMTIGFDIAKSTRDRKRAYGALIASMDLQQNSTYFSTVTECSAFDVLANTLWPMIAKALRQYQHEHRKLPSRIVFYRDGVSSGSLKQLFEFEVKDIIEKLKTEYARVQLSPPQLAYIVVTRSMNTRFFLNGQNPPPGTIVDDVITLPERYDFYLVSQQVRQGTVSPTSYNVLYSSMGLSPEKMQKLTYKMCHLYYNWSGTTRVPAVCQYAKKLATLVGTNLHSIPQNALEKKFYYL

Second part, the molecule before the results:

Molecule: MTA1-like (Drosophila (endogenous in OSC))
- binding [2]: no binding

Molecule: Gtsf1-FH (Drosophila (endogenous in OSC))
- binding [2]: binds

Molecule: p55 (from UniProt Q24572 1-430)
- binding (Gtsf1-GFP (Drosophila) [1]): binds

Molecule: Rpd3 (from UniProt Q94517 1-521)
- binding (Gtsf1-GFP (Drosophila) [1]): binds

B2: Piwi (protein, UniProt Q9VKM1 1-843)
chain: MADDQGRGRRRPLNEDDSSTSRGSGDGPRVKVFRGSSSGDPRADPRIEASRERRALEEAPRREGGPTERKPWGDQYDYLNTRPAELVSKKGTDGVPVMLQTNFFRLKTKPEWRIVHYHVEFEPSIENPRVRMGVLSNHANLLGSGYLFDGLQLFTTRKFEQEITVLSGKSKLDIEYKISIKFVGFISCAEPRFLQVLNLILRRSMKGLNLELVGRNLFDPRAKIEIREFKMELWPGYETSIRQHEKDILLGTEITHKVMRTETIYDIMRRCSHNPARHQDEVRVNVLDLIVLTDYNNRTYRINDVDFGQTPKSTFSCKGRDISFVEYYLTKYNIRIRDHNQPLLISKNRDKALKTNASELVVLIPELCRVTGLNAEMRSNFQLMRAMSSYTRMNPKQRTDRLRAFNHRLQNTPESVKVLRDWNMELDKNVTEVQGRIIGQQNIVFHNGKVPAGENADWQRHFRDQRMLTTPSDGLDRWAVIAPQRNSHELRTLLDSLYRAASGMGLRIRSPQEFIIYDDRTGTYVRAMDDCVRSDPKLILCLVPNDNAERYSSIKKRGYVDRAVPTQVVTLKTTKNRSLMSIATKIAIQLNCKLGYTPWMIELPLSGLMTIGFDIAKSTRDRKRAYGALIASMDLQQNSTYFSTVTECSAFDVLANTLWPMIAKALRQYQHEHRKLPSRIVFYRDGVSSGSLKQLFEFEVKDIIEKLKTEYARVQLSPPQLAYIVVTRSMNTRFFLNGQNPPPGTIVDDVITLPERYDFYLVSQQVRQGTVSPTSYNVLYSSMGLSPEKMQKLTYKMCHLYYNWSGTTRVPAVCQYAKKLATLVGTNLHSIPQNALEKKFYYL
- binding [4]: binds
- binding (Gtsf1-GFP (Drosophila) [5]): binds
- binding [6]: binds
